Measurements taken from PMC5127583.
Results are given in words; binding and its absence hold for the method and conditions named. Binding seen in cells or lysates may run through a third protein. Here binding means that the protein was enriched with, or labelled near, the bait; the list need not be complete.

Amino acid sequences for entries named in this document (tags omitted).
UniProt Q3URU2: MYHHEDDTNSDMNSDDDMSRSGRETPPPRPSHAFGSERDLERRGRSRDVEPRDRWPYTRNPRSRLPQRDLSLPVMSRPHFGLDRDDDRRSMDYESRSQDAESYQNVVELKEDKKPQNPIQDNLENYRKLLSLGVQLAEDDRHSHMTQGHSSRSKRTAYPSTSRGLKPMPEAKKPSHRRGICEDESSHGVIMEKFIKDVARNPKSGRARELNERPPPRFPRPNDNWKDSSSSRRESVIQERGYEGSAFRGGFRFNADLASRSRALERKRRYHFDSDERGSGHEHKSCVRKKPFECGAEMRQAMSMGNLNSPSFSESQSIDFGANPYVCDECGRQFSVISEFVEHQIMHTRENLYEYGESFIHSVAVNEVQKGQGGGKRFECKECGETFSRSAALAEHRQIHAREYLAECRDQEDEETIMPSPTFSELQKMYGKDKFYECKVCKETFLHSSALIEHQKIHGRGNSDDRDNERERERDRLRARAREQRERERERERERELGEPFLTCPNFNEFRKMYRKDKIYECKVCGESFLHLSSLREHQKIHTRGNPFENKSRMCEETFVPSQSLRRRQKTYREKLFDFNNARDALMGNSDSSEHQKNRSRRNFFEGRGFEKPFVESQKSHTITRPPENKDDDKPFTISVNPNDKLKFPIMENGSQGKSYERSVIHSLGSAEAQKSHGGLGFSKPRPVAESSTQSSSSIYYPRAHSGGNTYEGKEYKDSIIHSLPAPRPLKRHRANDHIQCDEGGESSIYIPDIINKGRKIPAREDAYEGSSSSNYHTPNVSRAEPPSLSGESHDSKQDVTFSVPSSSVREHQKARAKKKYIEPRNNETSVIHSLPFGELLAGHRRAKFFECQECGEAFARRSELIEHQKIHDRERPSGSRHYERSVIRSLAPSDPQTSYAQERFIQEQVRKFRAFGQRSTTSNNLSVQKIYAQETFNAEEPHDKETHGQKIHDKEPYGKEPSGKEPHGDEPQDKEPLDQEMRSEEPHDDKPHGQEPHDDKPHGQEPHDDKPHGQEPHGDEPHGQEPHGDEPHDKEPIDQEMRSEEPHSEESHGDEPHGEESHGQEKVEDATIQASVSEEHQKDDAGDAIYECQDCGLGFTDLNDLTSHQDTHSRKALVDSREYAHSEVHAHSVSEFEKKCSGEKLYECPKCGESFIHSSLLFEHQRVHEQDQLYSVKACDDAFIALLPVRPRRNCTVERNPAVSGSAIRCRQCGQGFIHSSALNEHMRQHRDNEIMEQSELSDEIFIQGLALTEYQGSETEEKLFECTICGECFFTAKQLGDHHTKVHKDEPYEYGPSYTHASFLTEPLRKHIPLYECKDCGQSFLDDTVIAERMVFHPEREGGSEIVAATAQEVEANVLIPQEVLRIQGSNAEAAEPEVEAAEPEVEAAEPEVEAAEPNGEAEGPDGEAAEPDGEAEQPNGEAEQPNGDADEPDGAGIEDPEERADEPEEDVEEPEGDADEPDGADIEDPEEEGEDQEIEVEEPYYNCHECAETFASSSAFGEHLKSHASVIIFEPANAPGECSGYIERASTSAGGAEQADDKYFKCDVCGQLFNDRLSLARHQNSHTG

B1: MEST (Mesoderm specific transcript), endogenous in mouse embryonic fibroblasts (protein, UniProt Q07646 1-335)
chain: MVRRDRLRRMREWWVQVGLLAVPLLAAYLHIPPPQLSPALHSWKTSGKFFTYKGLRIFYQDSVGVVGSPEIVVLLHGFPTSSYDWYKIWEGLTLRFHRVIALDFLGFGFSDKPRPHQYSIFEQASIVESLLRHLGLQNRRINLLSHDYGDIVAQELLYRYKQNRSGRLTIKSLCLSNGGIFPETHRPLLLQKLLKDGGVLSPILTRLMNFFVFSRGLTPVFGPYTRPTESELWDMWAVIRNNDGNLVIDSLLQYINQRKKFRRRWVGALASVSIPIHFIYGPLDPINPYPEFLELYRKTLPRSTVSILDDHISHYPQLEDPMGFLNAYMGFINSF
B2: ACLY (ATP Citrate Lyase), endogenous in mouse embryonic fibroblasts (enzyme, UniProt Q91V92 1-1091)
chain: MSAKAISEQTGKELLYKYICTTSAIQNRFKYARVTPDTDWAHLLQDHPWLLSQSLVVKPDQLIKRRGKLGLVGVNLSLDGVKSWLKPRLGHEATVGKAKGFLKNFLIEPFVPHSQAEEFYVCIYATREGDYVLFHHEGGVDVGDVDAKAQKLLVGVDEKLNTEDIKRHLLVHAPEDKKEVLASFISGLFNFYEDLYFTYLEINPLVVTKDGVYILDLAAKVDATADYICKVKWGDIEFPPPFGREAYPEEAYIADLDAKSGASLKLTLLNPKGRIWTMVAGGGASVVYSDTICDLGGVNELANYGEYSGAPSEQQTYDYAKTILSLMTREKHPEGKILIIGGSIANFTNVAATFKGIVRAIRDYQGPLKEHEVTIFVRRGGPNYQEGLRVMGEVGKTTGIPIHVFGTETHMTAIVGMALGHRPIPNQPPTAAHTANFLLNASGSTSTPAPSRTASFSESRADEVAPAKKAKPAMPQGKSATLFSRHTKAIVWGMQTRAVQGMLDFDYVCSRDEPSVAAMVYPFTGDHKQKFYWGHKEILIPVFKNMADAMKKHPEVDVLINFASLRSAYDSTMETMNYAQIRTIAIIAEGIPEALTRKLIKKADQKGVTIIGPATVGGIKPGCFKIGNTGGMLDNILASKLYRPGSVAYVSRSGGMSNELNNIISRTTDGVYEGVAIGGDRYPGSTFMDHVLRYQDTPGVKMIVVLGEIGGTEEYKICRGIKEGRLTKPVVCWCIGTCATMFSSEVQFGHAGACANQASETAVAKNQALKEAGVFVPRSFDELGEIIQSVYEDLVAKGAIVPAQEVPPPTVPMDYSWARELGLIRKPASFMTSICDERGQELIYAGMPITEVFKEEMGIGGVLGLLWFQRRLPKYSCQFIEMCLMVTADHGPAVSGAHNTIICARAGKDLVSSLTSGLLTIGDRFGGALDAAAKMFSKAFDSGIIPMEFVNKMKKEGKLIMGIGHRVKSINNPDMRVQILKDFVKQHFPATPLLDYALEVEKITTSKKPNLILNVDGFIGVAFVDMLRNCGSFTREEADEYVDIGALNGIFVLGRSMGFIGHYLDQKRLKQGLYRHPWDDISYVLPEHMSM
B3: HK2 (Hexokinase2), endogenous in mouse embryonic fibroblasts (enzyme, UniProt O08528 1-917)
chain: MIASHMIACLFTELNQNQVQKVDQYLYHMRLSDETLLEISRRFRKEMEKGLGATTHPTAAVKMLPTFVRSTPDGTEHGEFLALDLGGTNFRVLRVRVTDNGLQRVEMENQIYAIPEDIMRGSGTQLFDHIAECLANFMDKLQIKEKKLPLGFTFSFPCHQTKLDESFLVSWTKGFKSSGVEGRDVVDLIRKAIQRRGDFDIDIVAVVNDTVGTMMTCGYDDQNCEIGLIVGTGSNACYMEEMRHIDMVEGDEGRMCINMEWGAFGDDGTLNDIRTEFDREIDMGSLNPGKQLFEKMISGMYMGELVRLILVKMAKAELLFQGKLSPELLTTGSFETKDVSDIEDDKDGIQKAYQILVRLGLSPLQEDCVATHRICQIVSTRSASLCAATLAAVLWRIKENKGEERLRSTIGVDGSVYKKHPHFAKRLHKAVRRLVPDCDVRFLRSEDGSGKGAAMVTAVAYRLADQHRARQKTLESLKLSHEQLLEVKRRMKVEMEQGLSKETHEAAPVKMLPTYVCATPDGTEKGDFLALDLGGTNFRVLLVRVRNGKRRGVEMHNKIYSIPQEVMHGTGEELFDHIVQCIADFLEYMGMKGVSLPLGFTFSFPCQQNSLDQSILLKWTKGFKASGCEGEDVVTLLKEAIRRREEFDLDVVAVVNDTVGTMMTCGYEDPHCEVGLIVGTGSNACYMEEMRNVELVDGEEGRMCVNMEWGAFGDNGCLDDLRTVFDVAVDELSLNPGKQRFEKMISGMYLGEIVRNILIDFTKRGLLFRGRISERLKTRGIFETKFLSQIESDCLALLQVRAILRHLGLESTCDDSIIVKEVCTVVARRAAQLCGAGMAAVVDKIRENRGLDNLKVTVGVDGTLYKLHPHFAKVMHETVRDLAPKCDVSFLESEDGSGKGAALITAVACRIREAGQR

biological target: PEG3 (Paternally Expressed Gene 3) protein, endogenous in mouse embryonic fibroblasts (mouse (endogenous in MEF)) (UniProt Q3URU2); assay: affinity purification with mass spectrometry; extracts of WT and Peg3 KO MEF cells (Pierce IP Lysis Buffer: 25 mM Tris-HCl pH 7.4, 150 mM NaCl, 1% NP-40, 1 mM EDTA, 5% glycerol) immunoprecipitated with anti-PEG3 antibody at 4°C; TMT LC-MS/MS; three WT against three KO samples

binding | Binder
binds | B1
binds | B2
binds | B3
